From article PMC4552645
These are yes or no findings as the source states them, for the method shown. Some results given as binding are weak or reduced against the parent protein; the word gives no strength.

Sequences of proteins named here, by UniProt entry; tags and fusion partners are left off.
UniProt P0A3F4: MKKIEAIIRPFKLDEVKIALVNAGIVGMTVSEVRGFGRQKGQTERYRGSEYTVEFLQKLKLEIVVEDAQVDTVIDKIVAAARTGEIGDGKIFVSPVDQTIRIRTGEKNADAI

Key:
[1] = molecular target: PII-Venus (Synechococcus elongatus PII protein with its C-terminus fused to the fluorescent Venus protein) (Synechococcus elongatus) (UniProt P0A3F4); experiment: FRET or BRET; competition: plate reader (Tecan Infinite 200, 96-well), PII-V and NAGK-C 0.1 uM each with 0.1, 0.5 or 1.0 uM PipX, 1 mM ATP with increasing ADP; 50 mM imidazole pH 7.5, 50 mM KCl, 20 mM MgCl2, 0.5 mM DTT; both purified
[2] = molecular target: PII-Venus (Synechococcus elongatus PII protein with its C-terminus fused to the fluorescent Venus protein) (Synechococcus elongatus) (UniProt P0A3F4); experiment: FRET or BRET; competition in 1 ml cuvettes (FluoroMax-2): PII-V 0.1 uM preincubated 1 h at 37°C with or without ATP, then NAGK-C 0.1 uM and PipX 1 uM added with ATP (10, 100, 1000 uM) or 1:1 ATP+ADP (5, 50, 500 uM each), FRET read after 15 min; 50 mM imidazole pH 7.5, 50 mM KCl, 20 mM MgCl2, 0.5 mM DTT; both purified

binding [1]: binds | binding [2]: binds
B1: PipX (protein, UniProt Q7X386 1-89)
chain: MASENYLNHPTFGLLYQICSFGDSKELFATLYAQRLFFLVAFDARGTRFEPIGRNEARMLVDNRLRQLRRDASLQEYNQLQQVFKQTFL
